Results from PubChem BioAssay AID188 (DTP/NCI, 2004).
The mice bore no tumour; each value counts animals alive of those treated. Counts of survivors are from the toxicity check (mostly the fifth day) where no day follows; animals may have died later. Schedules are NCI's codes, read here as Q, the interval in days (D) or hours (H), X, the number of doses. Some molecules as drawn cover several salts, stereoisomers or complexes of the source; a dose is that of the sample tested. Additions like (4×) say how often a value occurs here. Some doses were run more than once; the values are given in rising order.

Tested on: CD2F1 mice, nontumored, toxicity/survival
Experiment: NCI In Vivo Anticancer Drug Screen. Data for tumor model Nontumored Animals (Toxicity Test) in CD2F1 (CDF1) mice

SMILES: O=C1c2ccccc2C(=O)c2c(NCCNCCO)ccc(NCCNCCO)c21
- survivor count (dose: 0.25 mg/kg/injection, schedule: Q01DX005 (iv), vehicle: clinical formulation): 8 of 8
- survivor count (dose: 0.25 mg/kg/injection, schedule: Q01DX005 (iv), vehicle: water): 8 of 8
- survivor count (dose: 0.25 mg/kg/injection, schedule: Q01DX009 (ip), vehicle: clinical formulation): 8 of 8
- survivor count (dose: 0.25 mg/kg/injection, schedule: Q01DX009 (ip), vehicle: water): 8 of 8
- survivor count (dose: 0.5 mg/kg/injection, schedule: Q01DX005 (iv), vehicle: clinical formulation): 8 of 8
- survivor count (dose: 0.5 mg/kg/injection, schedule: Q01DX005 (iv), vehicle: water): 8 of 8
- survivor count (dose: 0.5 mg/kg/injection, schedule: Q01DX009 (ip), vehicle: clinical formulation): 8 of 8
- survivor count (dose: 0.5 mg/kg/injection, schedule: Q01DX009 (ip), vehicle: water): 8 of 8
- survivor count (dose: 1.0 mg/kg/injection, schedule: Q01DX005 (iv), vehicle: clinical formulation): 8 of 8
- survivor count (dose: 1.0 mg/kg/injection, schedule: Q01DX005 (iv), vehicle: water): 8 of 8
- survivor count (dose: 1.0 mg/kg/injection, schedule: Q01DX009 (ip), vehicle: clinical formulation): 8 of 8
- survivor count (dose: 1.0 mg/kg/injection, schedule: Q01DX009 (ip), vehicle: water): 8 of 8
- survivor count (dose: 2.0 mg/kg/injection, schedule: Q01DX005 (iv), vehicle: clinical formulation): 8 of 8
- survivor count (dose: 2.0 mg/kg/injection, schedule: Q01DX005 (iv), vehicle: water): 7 of 7
- survivor count (dose: 2.0 mg/kg/injection, schedule: Q01DX009 (ip), vehicle: clinical formulation): 8 of 8
- survivor count (dose: 2.0 mg/kg/injection, schedule: Q01DX009 (ip), vehicle: water): 7 of 7
- survivor count (dose: 4.0 mg/kg/injection, schedule: Q01DX005 (iv), vehicle: clinical formulation): 8 of 8
- survivor count (dose: 4.0 mg/kg/injection, schedule: Q01DX005 (iv), vehicle: water): 8 of 8
- survivor count (dose: 4.0 mg/kg/injection, schedule: Q01DX009 (ip), vehicle: clinical formulation): 8 of 8
- survivor count (dose: 4.0 mg/kg/injection, schedule: Q01DX009 (ip), vehicle: water): 8 of 8
- survivor count (dose: 6.0 mg/kg/injection, schedule: Q01DX001 (iv), vehicle: other): 10 of 10
- survivor count (dose: 6.01 mg/kg/injection, schedule: Q01DX001 (iv), vehicle: acid diluted with saline): 10 of 10
- survivor count (dose: 8.0 mg/kg/injection, schedule: Q01DX001 (iv), vehicle: other): 10 of 10
- survivor count (dose: 8.0 mg/kg/injection, schedule: Q01DX001 (iv), vehicle: saline): 10 of 10
- survivor count (dose: 8.0 mg/kg/injection, schedule: Q01DX005 (iv), vehicle: clinical formulation): 8 of 8
- survivor count (dose: 8.0 mg/kg/injection, schedule: Q01DX005 (iv), vehicle: water): 8 of 8
- survivor count (dose: 8.0 mg/kg/injection, schedule: Q01DX009 (ip), vehicle: clinical formulation): 8 of 8
- survivor count (dose: 8.0 mg/kg/injection, schedule: Q01DX009 (ip), vehicle: water): 8 of 8
- survivor count (dose: 8.01 mg/kg/injection, schedule: Q01DX001 (iv), vehicle: acid diluted with saline): 10 of 10 (2×)
- survivor count (dose: 8.01 mg/kg/injection, schedule: Q01DX001 (iv), vehicle: saline): 10 of 10
- survivor count (dose: 10.67 mg/kg/injection, schedule: Q01DX001 (iv), vehicle: acid diluted with saline): 10 of 10 (2×)
- survivor count (dose: 10.67 mg/kg/injection, schedule: Q01DX001 (iv), vehicle: saline): 10 of 10
- survivor count (dose: 10.7 mg/kg/injection, schedule: Q01DX001 (iv), vehicle: other): 10 of 10
- survivor count (dose: 10.7 mg/kg/injection, schedule: Q01DX001 (iv), vehicle: saline): 9 of 10 and 10 of 10
- survivor count (dose: 14.2 mg/kg/injection, schedule: Q01DX001 (iv), vehicle: other): 10 of 10
- survivor count (dose: 14.2 mg/kg/injection, schedule: Q01DX001 (iv), vehicle: saline): 10 of 10
- survivor count (dose: 14.24 mg/kg/injection, schedule: Q01DX001 (ip), vehicle: saline): 10 of 10
- survivor count (dose: 14.24 mg/kg/injection, schedule: Q01DX001 (iv), vehicle: acid diluted with saline): 9 of 10 and 10 of 10
- survivor count (dose: 14.24 mg/kg/injection, schedule: Q01DX001 (iv), vehicle: saline): 10 of 10
- survivor count (dose: 16.0 mg/kg/injection, schedule: Q01DX005 (iv), vehicle: clinical formulation): 6 of 8
- survivor count (dose: 16.0 mg/kg/injection, schedule: Q01DX005 (iv), vehicle: water): 8 of 8
- survivor count (dose: 16.0 mg/kg/injection, schedule: Q01DX009 (ip), vehicle: clinical formulation): 8 of 8
- survivor count (dose: 16.0 mg/kg/injection, schedule: Q01DX009 (ip), vehicle: water): 7 of 8
- survivor count (dose: 18.95 mg/kg/injection, schedule: Q01DX001 (ip), vehicle: saline): 10 of 10
- survivor count (dose: 18.98 mg/kg/injection, schedule: Q01DX001 (iv), vehicle: acid diluted with saline): 10 of 10 (2×)
- survivor count (dose: 18.98 mg/kg/injection, schedule: Q01DX001 (iv), vehicle: saline): 10 of 10
- survivor count (dose: 19.0 mg/kg/injection, schedule: Q01DX001 (iv), vehicle: other): 10 of 10
- survivor count (dose: 19.0 mg/kg/injection, schedule: Q01DX001 (iv), vehicle: saline): 10 of 10
- survivor count (dose: 23.3 mg/kg/injection, schedule: Q01DX001 (ip), vehicle: acid diluted with saline): 10 of 10
- survivor count (dose: 23.3 mg/kg/injection, schedule: Q01DX001 (sc), vehicle: acid diluted with saline): 10 of 10
- survivor count (dose: 25.3 mg/kg/injection, schedule: Q01DX001 (iv), vehicle: other): 10 of 10
- survivor count (dose: 25.3 mg/kg/injection, schedule: Q01DX001 (iv), vehicle: saline): 10 of 10
- survivor count (dose: 25.31 mg/kg/injection, schedule: Q01DX001 (ip), vehicle: saline): 10 of 10
- survivor count (dose: 25.31 mg/kg/injection, schedule: Q01DX001 (iv), vehicle: acid diluted with saline): 10 of 10 (2×)
- survivor count (dose: 25.31 mg/kg/injection, schedule: Q01DX001 (iv), vehicle: saline): 10 of 10
- survivor count (dose: 30.0 mg/kg/injection, schedule: Q01DX001 (ip), vehicle: saline): 10 of 10
- survivor count (dose: 30.0 mg/kg/injection, schedule: Q01DX001 (sc), vehicle: saline): 10 of 10
- survivor count (dose: 32.0 mg/kg/injection, schedule: Q01DX005 (iv), vehicle: clinical formulation): 7 of 8
- survivor count (dose: 32.0 mg/kg/injection, schedule: Q01DX005 (iv), vehicle: water): 8 of 8
- survivor count (dose: 32.0 mg/kg/injection, schedule: Q01DX009 (ip), vehicle: clinical formulation): 8 of 8
- survivor count (dose: 32.0 mg/kg/injection, schedule: Q01DX009 (ip), vehicle: water): 8 of 8
- survivor count (dose: 33.7 mg/kg/injection, schedule: Q01DX001 (iv), vehicle: other): 6 of 10 and 8 of 10
- survivor count (dose: 33.7 mg/kg/injection, schedule: Q01DX001 (iv), vehicle: saline): 10 of 10
- survivor count (dose: 33.75 mg/kg/injection, schedule: Q01DX001 (ip), vehicle: saline): 10 of 10
- survivor count (dose: 33.75 mg/kg/injection, schedule: Q01DX001 (iv), vehicle: acid diluted with saline): 10 of 10 (2×)
- survivor count (dose: 33.75 mg/kg/injection, schedule: Q01DX001 (iv), vehicle: saline): 10 of 10
- survivor count (dose: 38.9 mg/kg/injection, schedule: Q01DX001 (ip), vehicle: acid diluted with saline): 10 of 10
- survivor count (dose: 38.9 mg/kg/injection, schedule: Q01DX001 (sc), vehicle: acid diluted with saline): 10 of 10
- survivor count (dose: 45.0 mg/kg/injection, schedule: Q01DX001 (ip), vehicle: saline): 10 of 10
- survivor count (dose: 45.0 mg/kg/injection, schedule: Q01DX001 (iv), vehicle: acid diluted with saline): 8 of 10 and 10 of 10 (2×)
- survivor count (dose: 45.0 mg/kg/injection, schedule: Q01DX001 (iv), vehicle: other): 2 of 10 and 5 of 10
- survivor count (dose: 45.0 mg/kg/injection, schedule: Q01DX001 (iv), vehicle: saline): 10 of 10
- survivor count (dose: 50.2 mg/kg/injection, schedule: Q01DX001 (ip), vehicle: saline): 10 of 10
- survivor count (dose: 50.2 mg/kg/injection, schedule: Q01DX001 (sc), vehicle: saline): 10 of 10
- survivor count (dose: 60.0 mg/kg/injection, schedule: Q01DX001 (ip), vehicle: saline): 5 of 5
- survivor count (dose: 60.0 mg/kg/injection, schedule: Q01DX001 (iv), vehicle: acid diluted with saline): 1 of 1, 10 of 10, 5 of 5
- survivor count (dose: 60.0 mg/kg/injection, schedule: Q01DX001 (iv), vehicle: other): 0 of 10
- survivor count (dose: 60.0 mg/kg/injection, schedule: Q01DX001 (iv), vehicle: saline): 5 of 10, 10 of 10, 8 of 8
- survivor count (dose: 64.0 mg/kg/injection, schedule: Q01DX005 (iv), vehicle: clinical formulation): 0 of 8
- survivor count (dose: 64.0 mg/kg/injection, schedule: Q01DX005 (iv), vehicle: water): 0 of 8
- survivor count (dose: 64.0 mg/kg/injection, schedule: Q01DX009 (ip), vehicle: clinical formulation): 7 of 8
- survivor count (dose: 64.0 mg/kg/injection, schedule: Q01DX009 (ip), vehicle: water): 8 of 8
- survivor count (dose: 64.8 mg/kg/injection, schedule: Q01DX001 (ip), vehicle: acid diluted with saline): 10 of 10
- survivor count (dose: 64.8 mg/kg/injection, schedule: Q01DX001 (sc), vehicle: acid diluted with saline): 10 of 10
- survivor count (dose: 80.0 mg/kg/injection, schedule: Q01DX001 (iv), vehicle: acid diluted with saline): 6 of 6
- survivor count (dose: 80.0 mg/kg/injection, schedule: Q01DX001 (iv), vehicle: other): 0 of 10
- survivor count (dose: 80.0 mg/kg/injection, schedule: Q01DX001 (iv), vehicle: saline): 0 of 10, 1 of 1, 10 of 10
- survivor count (dose: 83.6 mg/kg/injection, schedule: Q01DX001 (ip), vehicle: saline): 10 of 10
- survivor count (dose: 83.6 mg/kg/injection, schedule: Q01DX001 (sc), vehicle: saline): 10 of 10
- survivor count (dose: 106.7 mg/kg/injection, schedule: Q01DX001 (iv), vehicle: saline): 0 of 10
- survivor count (dose: 108.0 mg/kg/injection, schedule: Q01DX001 (ip), vehicle: acid diluted with saline): 10 of 10
- survivor count (dose: 108.0 mg/kg/injection, schedule: Q01DX001 (sc), vehicle: acid diluted with saline): 10 of 10
- survivor count (dose: 128.0 mg/kg/injection, schedule: Q01DX009 (ip), vehicle: clinical formulation): 4 of 8
- survivor count (dose: 128.0 mg/kg/injection, schedule: Q01DX009 (ip), vehicle: water): 1 of 8
- survivor count (dose: 139.0 mg/kg/injection, schedule: Q01DX001 (ip), vehicle: saline): 10 of 10
- survivor count (dose: 139.0 mg/kg/injection, schedule: Q01DX001 (sc), vehicle: saline): 10 of 10
- survivor count (dose: 180.0 mg/kg/injection, schedule: Q01DX001 (ip), vehicle: acid diluted with saline): 1 of 10
- survivor count (dose: 180.0 mg/kg/injection, schedule: Q01DX001 (sc), vehicle: acid diluted with saline): 10 of 10
- survivor count (dose: 232.0 mg/kg/injection, schedule: Q01DX001 (ip), vehicle: saline): 0 of 10 and 1 of 10
- survivor count (dose: 232.0 mg/kg/injection, schedule: Q01DX001 (sc), vehicle: saline): 10 of 10
- survivor count (dose: 300.0 mg/kg/injection, schedule: Q01DX001 (ip), vehicle: acid diluted with saline): 0 of 10
- survivor count (dose: 300.0 mg/kg/injection, schedule: Q01DX001 (sc), vehicle: acid diluted with saline): 0 of 10 and 6 of 10
- survivor count (dose: 387.0 mg/kg/injection, schedule: Q01DX001 (ip), vehicle: saline): 0 of 10
- survivor count (dose: 387.0 mg/kg/injection, schedule: Q01DX001 (sc), vehicle: saline): 0 of 10 and 1 of 10
- survivor count (dose: 500.0 mg/kg/injection, schedule: Q01DX001 (ip), vehicle: acid diluted with saline): 0 of 10 and 0 of 2
- survivor count (dose: 500.0 mg/kg/injection, schedule: Q01DX001 (sc), vehicle: acid diluted with saline): 0 of 10 and 1 of 10
- survivor count (dose: 645.0 mg/kg/injection, schedule: Q01DX001 (ip), vehicle: saline): 0 of 10 and 0 of 9
- survivor count (dose: 645.0 mg/kg/injection, schedule: Q01DX001 (sc), vehicle: saline): 0 of 10
